In all, about 330,000 compounds went through this assay and about 1,000 (0.3%) were called active. Inconclusive results, whose numbers are uncertain, are shown with a selection of clear calls. Calls come from the whole dose curve; as a rule, active = well fitted inhibition curve with a large enough effect; inconclusive = small, poorly fitted or top-dose-only effect; inactive = no such curve, though single readings can be large or run the other way; tested in mouse RAW 264.7 cells. Potencies of inconclusive entries are doubtful fits and often do not repeat.
Test: qHTS for Inhibitors of Cell Surface uPA Generation; note: nearly all actives have a fitted effect of over 55% in size
Settings: cell surface uPA generation assay; series mostly up to 38.3 µM
Outline: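 Intracellular ATP by ATPlite luminescence serves as read-out: inhibited cell-surface uPA generation prevents LF translocation, preserving ATP. Murine RAW 264.7 macrophages were treated 24 h at 37 C with five-fold serial dilutions, up to 38.3 uM final.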
Potency is the fitted concentration of half-maximal effect.

SMILES | Potency
CC(=O)c1cn(Cc2ccccc2F)c2ccccc12 | inconclusive: 14.1 µM [inhibitor, single point]
C=CCNC(=O)c1onc(CCl)c1C(=O)OC | inconclusive: 14.1 µM [inhibitor, single point]
COc1ccc(NC2Oc3cc4c(cc3C(c3cc(OC)c(OC)c(OC)c3)C2C)OCO4)cc1 (stereo not given) | inactive
COc1ccc2[nH]c3c(c2c1)CCN1C(=O)C(CC(=O)NCc2ccco2)C[C@H](C(=O)N(C(C)C)C(C)C)[C@@]31C (stereo not given in full) | inconclusive: 11.2 µM [inhibitor, partial curve]
O=[P+](Cc1ccccc1)Cc1ccccc1 | inactive
COc1cc(SC)ccc1C(=O)N1CCN(c2ccc(O)cc2)CC1 | inconclusive: 4.47 µM [inhibitor, partial curve, poor fit]
COc1cc(NC(=O)c2cc(C)on2)cc(C(=O)Nc2cccc(C(F)(F)F)c2)c1 | inconclusive: 12.6 µM [inhibitor, single point]
Nc1c(C(=O)NCc2ccco2)c2nc3ccccc3nc2n1CCN1CCCCC1 | inconclusive: 8.91 µM [inhibitor, partial curve, poor fit]
CCOc1ccccc1Nc1nc(-c2sc(NC(=O)c3ccco3)nc2C)cs1 | inconclusive: 7.08 µM [inhibitor, single point]
c1nc(NC2CCCC2)c2[nH]cnc2n1 | inconclusive: 10 µM [inhibitor, single point]
N[C@@H](Cc1cc(I)c(O)c(I)c1)C(=O)O | inconclusive: 2.51 µM [inhibitor, partial curve, poor fit]
CCN1CCN(Cc2ccc(NC(=O)c3cc(NC(=O)c4cc(C)on4)cc(OC)c3)cc2C(F)(F)F)CC1 | inconclusive: 11.2 µM [inhibitor, single point]
Fc1cccc(/C=N/Nc2ncnc3nc[nH]c23)c1 | inconclusive: 10 µM [inhibitor, partial curve, poor fit]
Cn1cc(C(=O)CCl)c2ccccc21 | inconclusive: 22.4 µM [inhibitor, single point]
COC(=O)C1=C(c2ccc(F)cc2F)C[C@@H]2CC[C@H]1N2C(=O)NCCCOC(C)C | inactive
COc1cc2c(cc1OC)-c1c3c(cc4c1[C@@H](C2)N(C)CC4)OCO3 | inconclusive: 10 µM [inhibitor, partial curve, poor fit]
C=C[C@@H]1c2ccccc2N(S(=O)(=O)c2ccc(C)cc2)[C@H](c2ccc(OC(C)=O)cc2)C1(C#N)C#N | inconclusive: 10 µM [inhibitor, single point]
CCn1c(NN=O)nc2ccccc21 | inactive
Cc1ccc(-c2nc3ccc([N+](=O)[O-])cc3[nH]2)cc1 | inconclusive: 11.2 µM [inhibitor, partial curve, poor fit]
O=C1CN=C(c2ccc[nH]2)c2cc(Cl)ccc2N1 | inconclusive: 3.16 µM [inhibitor, partial curve, poor fit]

Copied from the listing, two compounds:
SMILES | Potency
CCN1CCN(Cc2ccc(NC(=O)c3cc(NC(=O)c4cc(C)on4)cc(OC)c3)cc2C(F)(F)F)CC1 | inconclusive: 11.2 µM [inhibitor, single point]
Fc1cccc(/C=N/Nc2ncnc3nc[nH]c23)c1 | inconclusive: 10 µM [inhibitor, partial curve, poor fit]

(listing goes on)

SMILES | Potency
CN1/C(=C\C=C2C(=O)NC(=O)NC2=O)C(C)(C)c2ccccc21 | inconclusive: 6.31 µM [inhibitor, single point]
COc1ccc(S(=O)(=O)N2CCOCC2)cc1NC(=O)COC(=O)Cc1ccccc1 | inconclusive: 3.55 µM [inhibitor, partial curve, poor fit]
Cc1cc(C)c2c(ccc3cccc[n+]32)c1 | inconclusive: 3.16 µM [inhibitor, partial curve, poor fit]
CN(CCOc1ccc(Cl)cc1)C(=O)c1cccc(S(=O)(=O)N2CCN(c3ccccc3)CC2)c1 | inconclusive: 12.6 µM [inhibitor, single point]
CCCn1c(C(=O)c2ccccc2OC)nc2ccccc21 | inconclusive: 2.51 µM [inhibitor, full curve, poor fit]
COc1cc(NS(=O)(=O)c2ccc3c(c2)oc(=O)n3C)cc(OC)c1OC | inconclusive: 10 µM [inhibitor, partial curve, poor fit]
Cc1ccc(N2C(=O)NC(=O)/C(=C\C=C\c3ccco3)C2=O)cc1 | active: 7.94 µM
O=C(N/N=C/c1ccc([N+](=O)[O-])s1)c1ccccc1Br | inconclusive: 11.2 µM [inhibitor, single point]
CC(=O)c1ccc(-c2cccc(-c3nc4ccccn4c3NC3CCCCC3)c2)cc1 | inconclusive: 14.1 µM [inhibitor, partial curve, poor fit]
CSc1ccccc1C(=O)C1CCCN(Cc2ccccn2)C1 (stereo not given) | inactive
CCN(CC(=O)Nc1ccc(NC(C)=O)cc1)C(=O)CSC(c1ccccc1)c1ccccc1 | inconclusive: 0.398 µM [inhibitor, full curve, poor fit]
COc1ccc2cc1Oc1ccc(cc1)C[C@H]1c3cc(c(OC)cc3CCN1C)Oc1c(O)c(OC)cc3c1[C@H](C2)N(C)CC3 | inconclusive: 12.6 µM [inhibitor, single point]
COc1ccc(NC(c2ccccc2F)P(=O)(Oc2ccccc2)Oc2ccccc2)cc1 (stereo not given) | inconclusive: 11.2 µM [inhibitor, partial curve, poor fit]
O=C1NC(=O)N(c2ccccc2)C(=O)/C1=C/c1coc2ccc(O)cc2c1=O | inconclusive: 12.6 µM [inhibitor, single point]
C1=C(c2c[nH]c3ccccc23)CCN(Cc2ccccc2)C1 | inconclusive: 6.31 µM [inhibitor, single point]
COc1c(O)ccc(/C=N\NC(=O)c2ccc3c(c2)OCO3)c1[N+](=O)[O-] | inconclusive: 12.6 µM [inhibitor, partial curve, poor fit]
Cc1cccc(N2C(=O)NC(=O)/C(=C\C=C\c3ccco3)C2=O)c1 | active: 10 µM
c1ccc2c(CN3CCCCC3)c[nH]c2c1 | inconclusive: 10 µM [inhibitor, partial curve]
O=C1c2ccccc2-c2cccc3cccc1c23 | active: 8.91 µM
COCC1CCCN(C(=O)c2cc(COc3ccc4ncccc4c3)on2)C1 (stereo not given) | inconclusive: 5.01 µM [inhibitor, partial curve, poor fit]

Source: PubChem BioAssay AID540303 (National Center for Advancing Translational Sciences (NCATS), 2011)
